Source: EP0624163B1, “CYCLIC CALCITONIN DERIVATIVES AND METHOD FOR THEIR PRODUCTION” (Smithkline Beecham Farmaceutici S.p.A., priority 1992, dated 1998)
Part of at least one peptide drawing is inferred or uncertain, most often the ends.

System: Male Sprague Dawley rats
Assay: Hypocalcaemic activity in rats (total serum calcium after i.v. injection)
Assay type: in vivo, rat
Details: fasted rats, blood sampled one hour after dosing, VEHICLE 10.49 + 0.6
Description: The hypocalcaemic activity of compounds (I) can be determined as reported for example in J. Endocrinology, 33, 469 (1965).
Male Sprague Dawley rats, about 4 weeks old, were kept under fasting conditions for 24 hours. The compounds were dissolved with BSA buffer (0.1% bovine serum albumin on 0.1M acetate buffer pH 4.5) and injected by the i.v. route into the lateral tail vein at doses of 3-10-30-100 ng/Kg. One hour after the dosing blood was sampled from the tail or neck vessels, then the serum samples obtained.
The serum was diluted with 0.1% lanthanium chloride solution and the concentration of total calcium was determined by Atomic Absorption Spectrophotometry.

[1] = Dose 3 ng/kg i.v. (lateral tail vein)
[2] = Dose 10 ng/kg i.v. (lateral tail vein)
[3] = Dose 30 ng/kg i.v. (lateral tail vein)
[4] = Dose 100 ng/kg i.v. (lateral tail vein)

SMILES	Total serum calcium; mean + S.D. [1]	Total serum calcium; mean + S.D. [2]	Total serum calcium; mean + S.D. [3]	Total serum calcium; mean + S.D. [4]
CC(C)C[C@H](NC(=O)[C@H](CCCCN)NC(=O)CNC(=O)[C@H](CC(C)C)NC(=O)[C@@H](NC(=O)[C@@H]1CC#CCCC(=O)N[C@@H](CO)C(=O)N[C@@H](CC(N)=O)C(=O)N[C@@H](CC(C)C)C(=O)N[C@@H](CO)C(=O)N[C@@H]([C@@H](C)O)C(=O)N1)C(C)C)C(=O)N[C@@H](CO)C(=O)N[C@@H](CCC(N)=O)C(=O)N[C@@H](CCC(=O)O)C(=O)N[C@@H](CC(C)C)C(=O)N[C@@H](Cc1c[nH]cn1)C(=O)N[C@@H](CCCCN)C(=O)N[C@@H](CC(C)C)C(=O)N[C@@H](CCC(N)=O)C(=O)N[C@H](C(=O)N[C@@H](Cc1ccc(O)cc1)C(=O)N1CCC[C@H]1C(=O)N[C@@H](CCCNC(=N)N)C(=O)N[C@H](C(=O)N[C@@H](CC(=O)O)C(=O)N[C@H](C(=O)NCC(=O)N[C@@H](C)C(=O)NCC(=O)N[C@H](C(=O)N1CCC[C@H]1C(N)=O)[C@@H](C)O)C(C)C)[C@@H](C)O)[C@@H](C)O [Example 1]	10.16±0.8 mg/100 ml	9.16±0.6 mg/100 ml	7.86±0.5 mg/100 ml	7.61±0.4 mg/100 ml
CC(C)C[C@H](NC(=O)[C@H](CCCCN)NC(=O)CNC(=O)[C@H](CC(C)C)NC(=O)[C@@H](NC(=O)[C@@H]1C/C=C\CCC(=O)N[C@@H](CO)C(=O)N[C@@H](CC(N)=O)C(=O)N[C@@H](CC(C)C)C(=O)N[C@@H](CO)C(=O)N[C@@H]([C@@H](C)O)C(=O)N1)C(C)C)C(=O)N[C@@H](CO)C(=O)N[C@@H](CCC(N)=O)C(=O)N[C@@H](CCC(=O)O)C(=O)N[C@@H](CC(C)C)C(=O)N[C@@H](Cc1c[nH]cn1)C(=O)N[C@@H](CCCCN)C(=O)N[C@@H](CC(C)C)C(=O)N[C@@H](CCC(N)=O)C(=O)N[C@H](C(=O)N[C@@H](Cc1ccc(O)cc1)C(=O)N1CCC[C@H]1C(=O)N[C@@H](CCCNC(=N)N)C(=O)N[C@H](C(=O)N[C@@H](CC(=O)O)C(=O)N[C@H](C(=O)NCC(=O)N[C@@H](C)C(=O)NCC(=O)N[C@H](C(=O)N1CCC[C@H]1C(N)=O)[C@@H](C)O)C(C)C)[C@@H](C)O)[C@@H](C)O [Example 2]	10.36±0.4 mg/100 ml	9.26±0.5 mg/100 ml	8.07±0.3 mg/100 ml	7.36±0.3 mg/100 ml
CC(C)C[C@H](NC(=O)[C@H](CCCCN)NC(=O)CNC(=O)[C@H](CC(C)C)NC(=O)[C@@H](NC(=O)[C@@H]1C/C=C/CCC(=O)N[C@@H](CO)C(=O)N[C@@H](CC(N)=O)C(=O)N[C@@H](CC(C)C)C(=O)N[C@@H](CO)C(=O)N[C@@H]([C@@H](C)O)C(=O)N1)C(C)C)C(=O)N[C@@H](CO)C(=O)N[C@@H](CCC(N)=O)C(=O)N[C@@H](CCC(=O)O)C(=O)N[C@@H](CC(C)C)C(=O)N[C@@H](Cc1c[nH]cn1)C(=O)N[C@@H](CCCCN)C(=O)N[C@@H](CC(C)C)C(=O)N[C@@H](CCC(N)=O)C(=O)N[C@H](C(=O)N[C@@H](Cc1ccc(O)cc1)C(=O)N1CCC[C@H]1C(=O)N[C@@H](CCCNC(=N)N)C(=O)N[C@H](C(=O)N[C@@H](CC(=O)O)C(=O)N[C@H](C(=O)NCC(=O)N[C@@H](C)C(=O)NCC(=O)N[C@H](C(=O)N1CCC[C@H]1C(N)=O)[C@@H](C)O)C(C)C)[C@@H](C)O)[C@@H](C)O [Example 3]	8.88±0.8 mg/100 ml	8.59±0.7 mg/100 ml	6.95±0.4 mg/100 ml	6.87±0.4 mg/100 ml
